Source: publication PMC4370629, “Structural and Functional Studies of Phosphoenolpyruvate Carboxykinase from Mycobacterium tuberculosis” (PLoS ONE, 2015)
These are yes or no findings as the source states them, for the method shown.

Sequences of proteins named here, by UniProt entry; tags and fusion partners are left off.
UniProt P9WIH3: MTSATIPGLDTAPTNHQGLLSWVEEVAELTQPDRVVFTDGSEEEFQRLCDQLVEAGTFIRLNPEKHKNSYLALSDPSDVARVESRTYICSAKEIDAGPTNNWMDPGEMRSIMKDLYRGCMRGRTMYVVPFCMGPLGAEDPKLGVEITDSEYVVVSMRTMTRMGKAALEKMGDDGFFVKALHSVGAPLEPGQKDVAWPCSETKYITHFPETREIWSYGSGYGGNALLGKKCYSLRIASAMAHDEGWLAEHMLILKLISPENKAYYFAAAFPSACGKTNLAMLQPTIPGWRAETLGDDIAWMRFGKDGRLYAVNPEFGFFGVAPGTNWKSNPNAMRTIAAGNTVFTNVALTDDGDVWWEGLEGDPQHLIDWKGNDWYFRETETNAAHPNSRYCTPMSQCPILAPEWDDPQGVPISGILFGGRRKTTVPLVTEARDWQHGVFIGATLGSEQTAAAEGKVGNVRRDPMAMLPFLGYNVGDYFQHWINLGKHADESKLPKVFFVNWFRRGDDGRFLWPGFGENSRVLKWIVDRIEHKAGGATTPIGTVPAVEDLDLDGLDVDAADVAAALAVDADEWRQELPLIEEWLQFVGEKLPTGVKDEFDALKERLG

Biological target: Mycobacterium tuberculosis phosphoenolpyruvate carboxykinase (Mtb Pck) (Mycobacterium tuberculosis) (UniProt P9WIH3)
Assay: SEC; both purified

Substance: Mycobacterium tuberculosis phosphoenolpyruvate carboxykinase (Mtb Pck) (from UniProt P9WIH3) (enzyme)
- binding: no binding (tested: 13 mg/ml)
